Consider 1 substance from PMC5520720.

The chains behind the UniProt entries cited, without tags or fusion partners.
UniProt P25490: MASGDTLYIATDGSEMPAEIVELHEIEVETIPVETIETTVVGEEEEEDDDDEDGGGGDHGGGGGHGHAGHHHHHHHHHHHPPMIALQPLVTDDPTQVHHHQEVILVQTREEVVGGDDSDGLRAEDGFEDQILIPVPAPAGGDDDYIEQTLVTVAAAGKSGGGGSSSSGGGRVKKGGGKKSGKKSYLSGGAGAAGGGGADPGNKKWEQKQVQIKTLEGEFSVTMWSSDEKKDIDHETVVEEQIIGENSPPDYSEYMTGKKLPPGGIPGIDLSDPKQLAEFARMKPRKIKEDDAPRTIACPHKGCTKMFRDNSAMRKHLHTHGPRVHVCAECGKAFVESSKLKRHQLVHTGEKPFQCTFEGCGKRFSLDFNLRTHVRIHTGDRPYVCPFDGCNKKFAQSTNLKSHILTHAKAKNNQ

No constants are given. Whether binding was seen depends on the method and setting. Binding seen in cells or lysates may run through a third protein. Here binding means that the protein was enriched with, or labelled near, the bait; the list need not be complete. Tags and fused reporters may be left off the sequences shown.

This experiment deals with T1, N-myc and STAT interactor (NMI) (human (endogenous in human breast cancer cells)) (UniProt Q13287).
T1 sequence: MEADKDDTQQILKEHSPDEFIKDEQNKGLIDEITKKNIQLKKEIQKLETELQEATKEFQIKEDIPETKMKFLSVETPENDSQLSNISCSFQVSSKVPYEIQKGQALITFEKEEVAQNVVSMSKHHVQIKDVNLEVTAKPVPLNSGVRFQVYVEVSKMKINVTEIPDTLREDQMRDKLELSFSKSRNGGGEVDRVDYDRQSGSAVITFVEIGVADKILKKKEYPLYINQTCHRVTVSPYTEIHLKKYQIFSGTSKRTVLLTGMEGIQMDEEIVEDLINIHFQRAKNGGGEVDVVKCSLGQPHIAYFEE
In words: affinity purification with mass spectrometry; immunoprecipitation of NMI from cell nuclear protein extracts with anti-NMI antibody, IgG as control; precipitated proteins identified by mass spectrometry.

Take YY1 (from UniProt P25490 1-414): the binding entry is listed as “binds”.
